Where two headings read alike, the source gives them in different places. Results are given in words; binding and its absence hold for the method and conditions named. For some of these results: Binding seen in cells or lysates may run through a third protein. Some entries that bind do so weakly or less than the wild type. For some of these results: Where a sequence is shown, tags or fusion partners need not be part of it. Values belong to the molecule of their own block, whether it stands above or below them.
Assays:
[1] = target: Endogenous BRCA2 in HeLa cells (human (endogenous in HeLa)) (UniProt P51587); test: proximity ligation
[2] = target: Endogenous BRCA2 in HeLa cells (human (endogenous in HeLa)) (UniProt P51587); test: proximity ligation; remark: listed apart in the source
[3] = target: T1, BRCA2_(1-40)HA-His (recombinant N-terminal BRCA2 fragment with a C-terminal HA tag) (human) (UniProt P51587); test: pull-down
T1 sequence: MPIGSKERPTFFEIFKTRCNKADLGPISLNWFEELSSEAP

Sequences of proteins named here, by UniProt entry; tags and fusion partners are left off.
UniProt Q86TI2: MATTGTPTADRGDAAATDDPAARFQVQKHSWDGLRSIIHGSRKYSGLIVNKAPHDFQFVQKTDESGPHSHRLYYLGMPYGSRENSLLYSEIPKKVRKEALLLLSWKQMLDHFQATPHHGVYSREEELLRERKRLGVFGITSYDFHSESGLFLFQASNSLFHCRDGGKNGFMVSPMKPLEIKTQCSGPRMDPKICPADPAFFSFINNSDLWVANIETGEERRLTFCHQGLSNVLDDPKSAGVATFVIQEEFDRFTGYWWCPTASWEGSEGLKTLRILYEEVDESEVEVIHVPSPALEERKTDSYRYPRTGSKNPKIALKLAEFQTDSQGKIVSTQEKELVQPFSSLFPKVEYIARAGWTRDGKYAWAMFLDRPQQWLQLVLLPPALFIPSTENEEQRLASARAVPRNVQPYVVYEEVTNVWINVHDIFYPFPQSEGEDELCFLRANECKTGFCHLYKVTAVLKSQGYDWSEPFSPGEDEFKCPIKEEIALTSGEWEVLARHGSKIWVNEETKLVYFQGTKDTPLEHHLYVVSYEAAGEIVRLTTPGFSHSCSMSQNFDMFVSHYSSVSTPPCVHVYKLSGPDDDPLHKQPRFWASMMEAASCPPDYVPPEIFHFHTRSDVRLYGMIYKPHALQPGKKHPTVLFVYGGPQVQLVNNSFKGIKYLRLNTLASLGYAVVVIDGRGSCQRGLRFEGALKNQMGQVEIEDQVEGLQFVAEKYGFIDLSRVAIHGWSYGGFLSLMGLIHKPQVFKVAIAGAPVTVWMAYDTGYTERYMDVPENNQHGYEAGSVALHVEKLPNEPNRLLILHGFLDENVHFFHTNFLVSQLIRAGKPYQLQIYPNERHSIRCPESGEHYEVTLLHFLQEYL

[4] = target: Human recombinant DPP9 (dipeptidyl peptidase 9), His-tagged (human) (UniProt Q86TI2); test: pull-down

binding [1]: binds | binding [2]: no binding (condition: with 10 µM 1G244)
Molecule: Endogenous DPP9 in HeLa cells (from UniProt Q86TI2 1-863) (enzyme)

binding [3]: binds
Molecule: Human recombinant DPP9 (dipeptidyl peptidase 9), His-tagged (from UniProt Q86TI2 1-863) (enzyme)

binding [4]: binds
B1: SLRFLYEG peptide (competitive DPP9 inhibitor) (peptide)
peptide: SLRFLYEG
